Measurements from “University of Dundee, Small-Polar-MMV Screening Library” (2021), ChEMBL document CHEMBL3988442.

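Whole-cell assay for inhibitors of Mycobacterium tuberculosis growth, labelled Cornell in the record; the read-out is not stated. The concentration is filed as 10 mM, unlikely as a test dose, so the dose is not known. Higher means stronger inhibition (inferred from two other growth screens of the library). About 53,000 compounds were tested under these conditions; 1.7% (about 900) showed 50% or more at least once.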

Values are the deposited “Percent Effect”, in %.
The record does not define 0% and 100%; most values in the screen are far below 50% and negative numbers occur (in some assays of this library far below -100).
The compounds are a random part of those screened.

With Nc1cc(C(=O)NC2CCCN(CCCc3ccccc3)C2)ccn1 (stereo not given) the screen gave -14.78%. COc1ccc(CN2CCC3(CC2)CCN(CC2CC2)C3=O)cc1.O=C(O)C(F)(F)F gave 6.492%. COc1ccccc1C(C)CC(=O)N1CCN(S(N)(=O)=O)CC1 (stereo not given) read -40.63%. Result for COCC(=O)N1Cc2nc3c(C)c(-c4cccs4)nn3c(O)c2C1 was 3.993%. For Cn1cc(CNC(=O)Nc2ccc(S(=O)(=O)C(F)F)cc2)cn1 the result was 33.37%.

COc1ccc(Br)c(NC(=O)NCc2cnn(C)c2)c1 gave 6.93%. Cc1cc(C)nc(NC(C)Cc2cnccn2)n1 (stereo not given) read 4.414%. Cc1cc(C(N)=O)nc(C2(C)CCCN2Cc2cnn(C)c2C)n1 (stereo not given) gave -21.72%. Result for O=C(NC[C@H]1CCCC[C@H]1O)c1cccc2[nH]c(-c3cccs3)nc12 was 31.53%. With Cc1n[nH]c(C)c1CNC(=O)N(Cc1ccccc1)CC(C)(C)O the screen gave 25.75%.

With NC(=O)CN(CC(=O)NCc1cc(F)cc(F)c1)C1CCCC1 the screen gave 20.53%. Result for Cc1nc2oc(C(=O)N3CCCC3)c(N)c2c2c1CCCC2 was 2.816%. For COC(=O)c1ccc(S(=O)(=O)N2CCCn3ncnc32)s1 the result was 7.372%. O=C1NCC2(CCCN(C(=O)c3c[nH]nc3C3CCCCC3)C2)O1 (stereo not given) read -4.189%. Result for CCC(Sc1ncc(CO)n1C)c1ccccc1 (stereo not given) was 5.677%.

CCOCC1CN(Cc2ccc3c(c2)OCO3)Cc2nccn2C1 (stereo not given) read 21.82%. Result for Cn1cc(-c2ncc3c(c2C(=O)O)CCN(CC2CC2)C3)cn1.O=C(O)C(F)(F)F.O=C(O)C(F)(F)F was -6.33%. For CCn1cc(S(=O)(=O)NC2CCCN(CC3CCCCC3)C2)cn1 (stereo not given) the result was -26.8%. Result for [H][C@]12CC[C@]([H])(CN(Cc3snnc3C)C1)N(Cc1ccccc1)C2 was 36.71%. CC(O)CN1CCN(C(=O)c2cnn(-c3ccc(Cl)cc3)c2)CC1 (stereo not given) read 15.02%.

With [H][C@@]12CS(=O)(=O)C[C@]1([H])N(C(=O)c1ccc3nc(C)oc3c1)CCN2CCC the screen gave 13.99%. With CC(C)C(=O)NCCNC(=O)C(C)OCC(F)(F)F (stereo not given) the screen gave 21.08%. COc1cccc(CN(C(=O)Nc2nncs2)C2CCC(O)CC2)c1 (stereo not given) read 28.82%. Result for CC(c1nc(C2CC2)no1)N(C)Cc1ccc(C#N)cc1 (stereo not given) was 25.64%. With Cc1nn(C)c(C)c1NC(=O)c1cccc(CN2CC[C@H](O)C2)c1 the screen gave -7.861%.

With [H][C@]12CNC[C@@]1(C(=O)NCCNc1ccncc1C)CN(C(C)=O)C2 the screen gave 11.29%. CN1CCC(c2nccnc2Nc2cnccn2)CC1 gave 2.333%. For Cn1c(=O)ccn(CC(=O)Nc2cnccc2O)c1=O the result was -0.9971%. Cc1ccc(CN2Cc3ccccc3O[C@]3(CC[C@H](CO)CC3)C2)s1.Cl gave 10.24%. Cc1cc(C(=O)NC2CCCc3c2cnn3-c2cccc(C)c2C)[nH]n1 (stereo not given) read -11.03%.

Cc1nccc(CNC(=O)NCC(C)Oc2ccccc2F)n1 (stereo not given) read 14.97%. [H][C@@]12CN(Cc3cccnc3)CCO[C@]1([H])CN(C(=O)c1cnccn1)C2 read -41.01%. Result for O=C(O)C(F)(F)F.[H][C@@]12CCN(C(=O)c3ccc(C#N)cc3)[C@]1([H])CCC(=O)N2CCN(C)C was 30.41%. c1cc(CNCc2ccnc(N3CCCC3)c2)c2c(c1)OCCCO2 gave 6.015%. For Cc1ccc(-c2noc(C3CCN3C(=O)c3ccn(C)n3)n2)s1 (stereo not given) the result was 54.98%.

Cc1n[nH]c(C2CN(C(=O)c3ccco3)CCO2)n1 (stereo not given) read 8.402%. Result for Cc1nn(C2CCS(=O)(=O)C2)c(O)c1Cc1ccccc1Cl (stereo not given) was 21.57%. CN(CC(=O)N1CCC(OCc2cccnc2)CC1)c1ccccc1 gave 2.82%. With CCC(CC(=O)NS(=O)(=O)C(C)C)c1ccccc1 (stereo not given) the screen gave -17.18%. For CN(C)Cc1cnc(CC2CCN(CCc3ccccc3)CC2)cn1 the result was 8.201%.

Cc1ncsc1CCN(C)C(=O)CN1CCCCC1=O read -6.911%. COCC1CC2(CCN(C(N)=O)CC2)CN1Cc1csc(C)n1.O=C(O)C(F)(F)F (stereo not given) gave 28%. For FC1(F)CCN(Cc2ccccn2)CC12CCN(c1ncccn1)C2.O=C(O)C(F)(F)F (stereo not given) the result was 3.502%. With CC(C)N(C)Cc1cc(=O)n2c(n1)CN(C(=O)c1ccc[nH]1)CCC2 the screen gave -4.163%.

2 of the entries, repeated:

| Compound | Percent Effect |
|---|---|
| `COc1ccc(Br)c(NC(=O)NCc2cnn(C)c2)c1` | 6.93% |
| `FC1(F)CCN(Cc2ccccn2)CC12CCN(c1ncccn1)C2.O=C(O)C(F)(F)F` (stereo not given) | 3.502% |